# Data from PMC3765318, “An efficient protocol for the purification and labeling of entire yeast septin rods from E.coli for quantitative in vitro experimentation” (BMC Biotechnology, 2013).
# Results are given in words; binding and its absence hold for the method and conditions named. Some results given as binding are weak or reduced against the parent protein; the word gives no strength. Sequences can lack the tags named with a protein.
# T1: 6his-Cdc12 (S. cerevisiae) (UniProt P32468)
# T1 sequence: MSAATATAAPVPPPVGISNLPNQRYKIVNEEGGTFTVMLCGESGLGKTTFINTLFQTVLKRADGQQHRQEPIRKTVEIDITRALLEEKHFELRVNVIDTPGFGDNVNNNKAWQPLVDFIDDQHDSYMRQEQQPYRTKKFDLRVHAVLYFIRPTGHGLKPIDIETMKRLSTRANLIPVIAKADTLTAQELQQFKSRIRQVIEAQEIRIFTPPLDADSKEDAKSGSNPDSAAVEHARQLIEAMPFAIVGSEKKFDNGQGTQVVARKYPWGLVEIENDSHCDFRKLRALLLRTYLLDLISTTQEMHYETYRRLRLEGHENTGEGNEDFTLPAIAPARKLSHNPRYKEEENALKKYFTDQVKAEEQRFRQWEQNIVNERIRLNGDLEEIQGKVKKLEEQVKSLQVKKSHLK
# T2: Cdc10-SNAP labeled with BG-biotin (S. cerevisiae), P25342
# T2 chain: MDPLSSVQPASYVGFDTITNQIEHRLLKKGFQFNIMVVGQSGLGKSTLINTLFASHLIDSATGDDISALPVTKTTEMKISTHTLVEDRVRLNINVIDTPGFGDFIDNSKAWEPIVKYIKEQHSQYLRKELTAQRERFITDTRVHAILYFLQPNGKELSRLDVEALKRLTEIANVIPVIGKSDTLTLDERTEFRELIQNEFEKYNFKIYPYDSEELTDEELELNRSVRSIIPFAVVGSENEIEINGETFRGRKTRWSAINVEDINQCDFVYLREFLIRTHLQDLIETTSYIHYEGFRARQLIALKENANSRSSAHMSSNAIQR
# Assays:
# [1] = target: T1, 6his-Cdc12 (S. cerevisiae); experiment: isoelectric focusing; purified septin rods on precast pH 3-10 IEF gels; the single band excised and separated by denaturing SDS-PAGE, Coomassie staining; both purified
# [2] = target: T1, 6his-Cdc12 (S. cerevisiae); experiment: SEC; purified septin rods on Superose 6 10/300 GL in 300 mM NaCl, 50 mM Tris-HCl pH 8.0; peak fraction analysed by SDS-PAGE and Western blot (anti-Cdc3, anti-6his, anti-S tag); both purified
# [3] = target: T1, 6his-Cdc12 (S. cerevisiae); experiment: co-purification (IMAC + anion exchange); four septins co-expressed in E. coli; rod captured from the clarified lysate via the 6his tag of Cdc12 on HisTrap-HP, then Resource Q; subunits seen by Coomassie SDS-PAGE
# [4] = target: T2, Cdc10-SNAP labeled with BG-biotin (S. …); experiment: SPR; Biacore X100; biotinylated SNAP tagged rod captured through Cdc10-SNAP on an anti-biotin antibody coated CM5 chip; Cdc11 detected by two 60 s pulses of anti-S tag antibody (20 ug/ml) 2 h of washing apart; MSP buffer (10 mM MES, 150 mM NaCl, 0.05% Tween 20, pH 7.4); both purified; details: remark: other sources report otherwise
binding [1],binding [2],binding [3],binding [4],Binder
binds,binds,binds,–,"FLAG-Cdc3 (protein, UniProt P32457 1-520) MSLKEEQVSIKQDPEQEERQHDQFNDVQIKQESQDHDGVDSQYTNGTQNDDSERFEAAESDVKVEPGLGMGITSSQSEKGQVLPDQPEIKFIRRQINGYVGFANLPKQWHRRSIKNGFSFNLLCVGPDGIGKTTLMKTLFNNDDIEANLVKDYEEELANDQEEEEGQGEGHENQSQEQRHKVKIKSYESVIEENGVKLNLNVIDTEGFGDFLNNDQKSWDPIIKEIDSRFDQYLDAENKINRHSINDKRIHACLYFIEPTGHYLKPLDLKFMQSVYEKCNLIPVIAKSDILTDEEILSFKKTIMNQLIQSNIELFKPPIYSNDDAENSHLSERLFSSLPYAVIGSNDIVENYSGNQVRGRSYPWGVIEVDNDNHSDFNLLKNLLIKQFMEELKERTSKILYENYRSSKLAKLGIKQDNSVFKEFDPISKQQEEKTLHEAKLAKLEIEMKTVFQQKVSEKEKKLQKSETELFARHKEMKEKLTKQLKALEDKKKQLELSINSASPNVNHSPVPTKKKGFLR"
binds,binds,binds,–,"Cdc10 fused to the S tag (protein, UniProt P25342 1-322) MDPLSSVQPASYVGFDTITNQIEHRLLKKGFQFNIMVVGQSGLGKSTLINTLFASHLIDSATGDDISALPVTKTTEMKISTHTLVEDRVRLNINVIDTPGFGDFIDNSKAWEPIVKYIKEQHSQYLRKELTAQRERFITDTRVHAILYFLQPNGKELSRLDVEALKRLTEIANVIPVIGKSDTLTLDERTEFRELIQNEFEKYNFKIYPYDSEELTDEELELNRSVRSIIPFAVVGSENEIEINGETFRGRKTRWSAINVEDINQCDFVYLREFLIRTHLQDLIETTSYIHYEGFRARQLIALKENANSRSSAHMSSNAIQR"
binds,binds,binds,–,"Cdc10-SNAP (protein, UniProt P25342 1-322) MDPLSSVQPASYVGFDTITNQIEHRLLKKGFQFNIMVVGQSGLGKSTLINTLFASHLIDSATGDDISALPVTKTTEMKISTHTLVEDRVRLNINVIDTPGFGDFIDNSKAWEPIVKYIKEQHSQYLRKELTAQRERFITDTRVHAILYFLQPNGKELSRLDVEALKRLTEIANVIPVIGKSDTLTLDERTEFRELIQNEFEKYNFKIYPYDSEELTDEELELNRSVRSIIPFAVVGSENEIEINGETFRGRKTRWSAINVEDINQCDFVYLREFLIRTHLQDLIETTSYIHYEGFRARQLIALKENANSRSSAHMSSNAIQR"
–,–,–,binds,"Cdc11 fused to the S tag, P32458 1-415 (protein, here or on the partner: biotin, covalently attached with BG-Biotin to the SNAP tag) MSGIIDASSALRKRKHLKRGITFTVMIVGQSGSGRSTFINTLCGQQVVDTSTTILLPTDTSTEIDLQLREETVELEDDEGVKIQLNIIDTPGFGDSLDNSPSFEIISDYIRHQYDEILLEESRVRRNPRFKDGRVHCCLYLINPTGHGLKEIDVEFIRQLGSLVNIIPVISKSDSLTRDELKLNKKLIMEDIDRWNLPIYNFPFDEDEISDEDYETNMYLRTLLPFAIIGSNEVYEMGGDVGTIRGRKYPWGILDVEDSSISDFVILRNALLISHLHDLKNYTHEILYERYRTEALSGESVAAESIRPNLTKLNGSSSSSTTTRRNTNPFKQSNNINNDVLNPASDMHGQSTGENNETYMTREEQIRLEEERLKAFEERVQQELLLKRQELLQREKELREIEARLEKEAKIKQEE"
